Out of some 360,000 compounds screened, about 7,500 (2.1%) were called active. The shares of active, inactive and inconclusive entries below differ from those in the screen. Calls follow the shape of the dose curve; as a rule, active = well fitted inhibition curve with a large enough effect; inconclusive = small, poorly fitted or top-dose-only effect, or effect the other way; inactive = flat fitted curve, though single readings scatter. Where the call is inconclusive, the potency comes from a doubtful curve fit.
Experiment: Nrf2 qHTS screen for inhibitors; also: nearly all actives have a fitted effect of over 60% in size
Conditions: A549 ARE-Fluc reporter, luciferase luminescence, 18-24 h; series mostly up to 46 µM
Outline: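 A549 ARE_Fluc cells (5000/well, 5% FBS OPTI-MEM) pre-incubated 2 h, then treated with compounds 18-24 h at 37C/5% CO2 in concentration-response. CellTiter-Fluor viability read first; BugLite luciferase luminescence after 15 min at room temperature gives Nrf2 activity.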
Potency is read from the fitted curve at half-maximal effect.

SMILES | Potency
O=C1CC(N(CCc2ccccc2)C(=S)Nc2ccccc2)C(=O)N1c1ccccc1 (stereo not given) | inconclusive: 23.1 µM [falling, single point]
CC(C)c1ccc(NC(=S)N2CCCC2)cc1 | inconclusive: 0.82 µM [activator, full curve]
CCOC(=O)c1sc2nc(CC(=O)OC)nc(NCC(=O)OC)c2c1C | inactive
CCN(CCO)c1ccc(NC(=S)Nc2cccc(S(=O)(=O)N(C)C)c2)cc1 | inconclusive: 14.6 µM [falling, partial curve, poor fit]
CCCNc1ncnc2sc(C)c(C)c12 | inconclusive: 18.4 µM [falling, partial curve, poor fit]
c1ccc(Cn2c(SCCN3CCOCC3)nnc2-c2cccnc2)cc1 | inconclusive: 32.6 µM [activator, partial curve, poor fit]
Cc1cccc(NC(=O)Cn2c(/C=C/c3ccccc3)nc3ccccc32)c1 | inconclusive: 18.4 µM [activator, partial curve, poor fit]
C/C(=N\NC(=O)CSCc1ccc([N+](=O)[O-])cc1)c1ccccc1 | inconclusive: 20.6 µM [falling, single point]
COc1cc(C(=O)N(Cc2cc3cc(C)ccc3[nH]c2=O)CC2CCCO2)cc(OC)c1OC (stereo not given) | inactive
COC(=O)CCCCCn1c(-c2ccccc2)cn2c3c(=O)n(C)c(=O)n(C)c3nc12 | inactive
O=c1[nH]c2ccc(S(=O)(=O)N3CCN(c4ccccc4F)CC3)cc2s1 | inconclusive: 23.1 µM [falling, single point]
CC(=O)Nc1ccc(/C=C2\CCc3ccccc3C2=O)cc1 | inconclusive: 3.66 µM [activator, partial curve]
CCOc1ccc(-c2ccc(SC)nn2)cc1 | inconclusive: 0.58 µM [activator, full curve]
Nc1cc2nn(-c3ccccc3)nc2cc1Cl | inconclusive: 6.51 µM [activator, partial curve]
Cc1ccc(C)c2sc(NC(=O)C3CC3)nc12 | inactive
CCOC(=O)c1ccc(N2C(=O)C(CC(=O)NC)N(CCc3ccc(OC)c(OC)c3)C2=S)cc1 (stereo not given) | inactive
CC1(c2nnc(-c3ccncc3)o2)CC(c2c(Cl)cccc2Cl)=NO1 (stereo not given) | inactive
COc1ccc(Cc2noc(CN(C)CCc3ccccc3)n2)cc1OC | inconclusive: 1.84 µM [falling, partial curve, poor fit]
CC(C(=O)NCCS(=O)(=O)c1ccc(Cl)cc1)S(=O)(=O)c1ccc(Cl)cc1 (stereo not given) | active: 9.2 µM
O=C(Nc1scc(-c2cccs2)c1C(=O)O)c1cccs1 | inconclusive: 32.6 µM [falling, single point]

An excerpt of these results, field by field:
CC(C)c1ccc(NC(=S)N2CCCC2)cc1
  Potency: inconclusive: 0.82 µM [activator, full curve]
CCOC(=O)c1sc2nc(CC(=O)OC)nc(NCC(=O)OC)c2c1C
  Potency: inactive

Reference: PubChem BioAssay AID504444 (National Center for Advancing Translational Sciences (NCATS), 2011)
